No constants are given. Whether binding was seen depends on the method and setting. Binding seen in cells or lysates may run through a third protein. Some entries that bind do so weakly or less than the wild type.
Target: IP3 receptor type 3 (human (endogenous in fibroblasts)) (UniProt Q14573)
Assay: co-IP; fibroblast lysates; protein A/G agarose beads coupled with rabbit anti-TRPC3 or rabbit anti-IP3R3 (5 ug/mg lysate), overnight at +4 C, five washes in IP buffer, western blot

Sequences of proteins named here, by UniProt entry; tags and fusion partners are left off.
UniProt Q14573: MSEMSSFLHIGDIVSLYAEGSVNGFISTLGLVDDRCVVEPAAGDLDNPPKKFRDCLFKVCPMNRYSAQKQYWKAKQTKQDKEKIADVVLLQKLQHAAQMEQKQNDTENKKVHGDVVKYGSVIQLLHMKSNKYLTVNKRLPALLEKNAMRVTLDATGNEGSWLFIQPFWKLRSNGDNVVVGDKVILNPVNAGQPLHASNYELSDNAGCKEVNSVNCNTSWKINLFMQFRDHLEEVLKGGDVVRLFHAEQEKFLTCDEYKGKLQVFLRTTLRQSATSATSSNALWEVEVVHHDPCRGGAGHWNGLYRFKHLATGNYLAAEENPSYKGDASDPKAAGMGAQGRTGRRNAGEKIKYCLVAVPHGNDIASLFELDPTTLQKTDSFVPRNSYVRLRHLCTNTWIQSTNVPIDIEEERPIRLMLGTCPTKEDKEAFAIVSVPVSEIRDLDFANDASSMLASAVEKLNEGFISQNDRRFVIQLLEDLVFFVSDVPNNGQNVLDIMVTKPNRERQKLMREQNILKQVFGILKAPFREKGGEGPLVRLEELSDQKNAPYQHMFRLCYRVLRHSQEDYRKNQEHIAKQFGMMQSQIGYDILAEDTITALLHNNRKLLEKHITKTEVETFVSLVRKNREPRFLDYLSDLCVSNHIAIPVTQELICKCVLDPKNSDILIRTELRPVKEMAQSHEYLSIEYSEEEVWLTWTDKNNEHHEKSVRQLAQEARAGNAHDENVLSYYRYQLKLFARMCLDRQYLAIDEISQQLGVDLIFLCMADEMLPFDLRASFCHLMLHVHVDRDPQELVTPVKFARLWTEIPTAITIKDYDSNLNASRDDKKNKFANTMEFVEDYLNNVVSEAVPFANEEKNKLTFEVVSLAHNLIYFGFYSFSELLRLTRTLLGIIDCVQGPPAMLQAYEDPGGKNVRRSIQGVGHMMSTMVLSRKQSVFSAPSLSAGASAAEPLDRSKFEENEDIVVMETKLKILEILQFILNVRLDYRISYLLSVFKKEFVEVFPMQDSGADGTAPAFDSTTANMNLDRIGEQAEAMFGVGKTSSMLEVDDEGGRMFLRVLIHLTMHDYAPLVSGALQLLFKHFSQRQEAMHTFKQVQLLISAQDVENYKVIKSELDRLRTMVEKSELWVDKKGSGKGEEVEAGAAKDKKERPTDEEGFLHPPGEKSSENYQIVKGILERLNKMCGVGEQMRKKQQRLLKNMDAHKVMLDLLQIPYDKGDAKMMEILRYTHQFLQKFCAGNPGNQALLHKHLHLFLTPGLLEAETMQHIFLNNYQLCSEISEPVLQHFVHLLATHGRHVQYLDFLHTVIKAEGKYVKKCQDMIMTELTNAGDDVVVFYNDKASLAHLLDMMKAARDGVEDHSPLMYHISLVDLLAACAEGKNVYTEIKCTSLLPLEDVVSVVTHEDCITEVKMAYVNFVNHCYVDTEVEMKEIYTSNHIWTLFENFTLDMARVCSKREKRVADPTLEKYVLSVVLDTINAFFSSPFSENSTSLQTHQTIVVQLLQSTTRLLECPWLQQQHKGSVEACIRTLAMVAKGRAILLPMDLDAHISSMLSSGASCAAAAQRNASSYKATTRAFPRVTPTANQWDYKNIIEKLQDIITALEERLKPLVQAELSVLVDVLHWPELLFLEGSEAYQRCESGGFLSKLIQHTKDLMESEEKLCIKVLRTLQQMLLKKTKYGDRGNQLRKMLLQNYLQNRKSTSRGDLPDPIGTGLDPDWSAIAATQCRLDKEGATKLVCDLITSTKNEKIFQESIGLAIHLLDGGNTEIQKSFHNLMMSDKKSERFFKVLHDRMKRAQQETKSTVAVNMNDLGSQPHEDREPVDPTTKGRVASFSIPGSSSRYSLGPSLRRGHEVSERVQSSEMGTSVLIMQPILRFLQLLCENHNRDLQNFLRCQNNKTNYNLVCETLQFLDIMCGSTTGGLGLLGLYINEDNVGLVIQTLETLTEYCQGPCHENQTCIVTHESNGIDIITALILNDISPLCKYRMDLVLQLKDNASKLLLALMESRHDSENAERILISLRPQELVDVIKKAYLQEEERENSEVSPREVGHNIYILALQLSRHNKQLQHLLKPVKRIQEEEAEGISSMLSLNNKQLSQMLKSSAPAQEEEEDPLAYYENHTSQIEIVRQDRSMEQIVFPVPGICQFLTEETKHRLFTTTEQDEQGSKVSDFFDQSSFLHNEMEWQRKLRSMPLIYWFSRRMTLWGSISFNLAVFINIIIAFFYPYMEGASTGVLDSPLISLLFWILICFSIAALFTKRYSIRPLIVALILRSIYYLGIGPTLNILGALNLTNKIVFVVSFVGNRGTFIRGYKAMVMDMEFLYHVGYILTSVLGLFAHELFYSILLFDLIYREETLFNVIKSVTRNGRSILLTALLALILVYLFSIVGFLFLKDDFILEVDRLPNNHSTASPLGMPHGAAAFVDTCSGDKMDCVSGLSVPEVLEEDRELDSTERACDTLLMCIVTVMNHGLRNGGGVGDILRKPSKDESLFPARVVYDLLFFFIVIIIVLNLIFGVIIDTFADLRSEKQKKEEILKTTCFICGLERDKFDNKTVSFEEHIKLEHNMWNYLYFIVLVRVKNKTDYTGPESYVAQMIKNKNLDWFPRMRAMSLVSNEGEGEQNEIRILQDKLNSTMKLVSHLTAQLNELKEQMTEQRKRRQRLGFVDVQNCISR

binding: binds
B1: TRPC3 protein (protein, UniProt Q13507-3 1-848)
chain: MEGSPSLRRMTVMREKGRRQAVRGPAFMFNDRGTSLTAEEERFLDAAEYGNIPVVRKMLEESKTLNVNCVDYMGQNALQLAVGNEHLEVTELLLKKENLARIGDALLLAISKGYVRIVEAILNHPGFAASKRLTLSPCEQELQDDDFYAYDEDGTRFSPDITPIILAAHCQKYEVVHMLLMKGARIERPHDYFCKCGDCMEKQRHDSFSHSRSRINAYKGLASPAYLSLSSEDPVLTALELSNELAKLANIEKEFKNDYRKLSMQCKDFVVGVLDLCRDSEEVEAILNGDLESAEPLEVHRHKASLSRVKLAIKYEVKKFVAHPNCQQQLLTIWYENLSGLREQTIAIKCLVVLVVALGLPFLAIGYWIAPCSRLGKILRSPFMKFVAHAASFIIFLGLLVFNASDRFEGITTLPNITVTDYPKQIFRVKTTQFTWTEMLIMVWVLGMMWSECKELWLEGPREYILQLWNVLDFGMLSIFIAAFTARFLAFLQATKAQQYVDSYVQESDLSEVTLPPEIQYFTYARDKWLPSDPQIISEGLYAIAVVLSFSRIAYILPANESFGPLQISLGRTVKDIFKFMVLFIMVFFAFMIGMFILYSYYLGAKVNAAFTTVEESFKTLFWSIFGLSEVTSVVLKYDHKFIENIGYVLYGIYNVTMVVVLLNMLIAMINSSYQEIEDDSDVEWKFARSKLWLSYFDDGKTLPPPFSLVPSPKSFVYFIMRIVNFPKCRRRRLQKDIEMGMGNSKSRLNLFTQSNSRVFESHSFNSILNQPTRYQQIMKRLIKRYVLKAQVDKENDEVNEGELKEIKQDISSLRYELLEDKSQATEELAILIHKLSEKLNPSMLRCE

Source: article PMC8854551
